# These are yes or no findings as the source states them, for the method shown. Binding seen in cells or lysates may run through a third protein. Here binding means that the protein was enriched with, or labelled near, the bait; the list need not be complete.
# Amino acid sequences for entries named in this document (tags omitted).
# UniProt O14497: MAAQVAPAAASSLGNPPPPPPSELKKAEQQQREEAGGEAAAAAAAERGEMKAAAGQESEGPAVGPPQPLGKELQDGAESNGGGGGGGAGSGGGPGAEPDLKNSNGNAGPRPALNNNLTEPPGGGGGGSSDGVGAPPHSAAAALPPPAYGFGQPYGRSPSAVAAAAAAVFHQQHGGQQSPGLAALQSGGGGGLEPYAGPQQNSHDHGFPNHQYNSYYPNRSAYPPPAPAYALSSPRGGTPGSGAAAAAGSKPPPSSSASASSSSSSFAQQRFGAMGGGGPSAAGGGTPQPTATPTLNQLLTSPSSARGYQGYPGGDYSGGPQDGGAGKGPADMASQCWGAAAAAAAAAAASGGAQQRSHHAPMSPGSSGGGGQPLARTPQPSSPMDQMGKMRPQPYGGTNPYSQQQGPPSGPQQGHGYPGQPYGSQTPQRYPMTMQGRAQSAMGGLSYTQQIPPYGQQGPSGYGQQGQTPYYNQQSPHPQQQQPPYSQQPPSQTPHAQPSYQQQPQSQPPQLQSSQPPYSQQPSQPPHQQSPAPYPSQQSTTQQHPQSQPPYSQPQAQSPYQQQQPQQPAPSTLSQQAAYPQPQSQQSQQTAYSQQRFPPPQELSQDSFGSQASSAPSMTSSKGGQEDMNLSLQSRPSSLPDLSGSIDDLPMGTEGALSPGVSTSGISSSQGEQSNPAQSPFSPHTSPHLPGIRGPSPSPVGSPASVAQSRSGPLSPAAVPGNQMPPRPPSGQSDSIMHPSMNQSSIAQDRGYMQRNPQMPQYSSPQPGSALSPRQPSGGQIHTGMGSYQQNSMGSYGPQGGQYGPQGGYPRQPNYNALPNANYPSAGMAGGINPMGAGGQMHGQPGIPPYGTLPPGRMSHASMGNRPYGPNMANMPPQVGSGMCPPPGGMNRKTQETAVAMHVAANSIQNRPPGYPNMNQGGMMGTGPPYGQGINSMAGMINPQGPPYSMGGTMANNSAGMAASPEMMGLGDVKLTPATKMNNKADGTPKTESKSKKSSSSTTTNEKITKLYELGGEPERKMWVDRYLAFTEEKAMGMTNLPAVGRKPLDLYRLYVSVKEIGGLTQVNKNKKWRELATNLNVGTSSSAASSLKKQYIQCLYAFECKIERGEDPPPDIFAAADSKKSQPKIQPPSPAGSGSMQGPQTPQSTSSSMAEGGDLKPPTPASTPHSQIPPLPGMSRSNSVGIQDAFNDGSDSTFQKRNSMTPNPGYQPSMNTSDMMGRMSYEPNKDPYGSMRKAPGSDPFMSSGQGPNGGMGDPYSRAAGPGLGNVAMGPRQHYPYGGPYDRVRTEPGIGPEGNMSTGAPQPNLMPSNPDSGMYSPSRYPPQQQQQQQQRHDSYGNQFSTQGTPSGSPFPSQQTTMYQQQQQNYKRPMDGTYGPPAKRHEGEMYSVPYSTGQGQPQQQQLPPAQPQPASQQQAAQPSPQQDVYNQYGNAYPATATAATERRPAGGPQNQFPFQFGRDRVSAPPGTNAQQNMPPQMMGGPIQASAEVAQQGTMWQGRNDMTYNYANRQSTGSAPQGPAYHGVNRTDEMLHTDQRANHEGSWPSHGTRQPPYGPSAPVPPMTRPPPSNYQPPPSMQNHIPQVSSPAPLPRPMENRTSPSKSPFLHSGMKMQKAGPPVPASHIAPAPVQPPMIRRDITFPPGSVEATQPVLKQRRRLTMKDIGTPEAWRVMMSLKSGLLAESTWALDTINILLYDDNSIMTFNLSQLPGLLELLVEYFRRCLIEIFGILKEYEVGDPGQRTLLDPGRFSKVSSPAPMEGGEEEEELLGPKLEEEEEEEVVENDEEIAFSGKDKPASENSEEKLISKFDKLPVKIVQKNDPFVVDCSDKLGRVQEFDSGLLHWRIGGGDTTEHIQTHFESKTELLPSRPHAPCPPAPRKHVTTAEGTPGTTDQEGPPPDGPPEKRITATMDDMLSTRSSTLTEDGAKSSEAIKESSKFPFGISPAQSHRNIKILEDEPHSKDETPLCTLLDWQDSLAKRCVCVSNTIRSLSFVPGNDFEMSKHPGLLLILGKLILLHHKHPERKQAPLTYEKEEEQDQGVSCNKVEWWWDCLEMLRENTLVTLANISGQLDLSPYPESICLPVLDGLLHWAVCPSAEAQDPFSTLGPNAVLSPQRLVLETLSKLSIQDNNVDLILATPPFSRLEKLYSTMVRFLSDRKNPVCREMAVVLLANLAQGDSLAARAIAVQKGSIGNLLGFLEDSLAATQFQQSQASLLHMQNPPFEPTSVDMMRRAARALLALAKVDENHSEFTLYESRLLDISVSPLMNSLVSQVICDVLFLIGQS
# Key:
# [1] = biological target: AT-rich interaction domain protein 1A (ARID1A) (human (endogenous in the paper's human cell lines; the line used for the IP is not stated)) (UniProt O14497); assay: affinity purification with mass spectrometry; IP with anti-ARID1A (anti-IgG as control) from 1.5-2 mg benzonase-treated nuclear lysate (300 mM NaCl, 20 mM HEPES pH 7.5), protein A/G magnetic beads, washes with TBST; on-bead digest, label-free quantification, FDR <0.05, log2 fold change >2
# [2] = biological target: AT-rich interaction domain protein 1A (ARID1A) (human (endogenous in the paper's human cell lines; the line used for the IP is not stated)), O14497; assay: as above; conditions: remark: other sources report otherwise
binding [1],binding [2],Binder
binds,–,"RSF1 (protein, UniProt Q96T23 1-1441) MATAAAAAAVMAPPGCPGSCPNFAVVCSFLERYGPLLDLPELPFPELERVLQAPPPDVGNGEVPKELVELHLKLMRKIGKSVTADRWEKYLIKICQEFNSTWAWEMEKKGYLEMSVECKLALLKYLCECQFDDNLKFKNIINEEDADTMRLQPIGRDKDGLMYWYQLDQDHNVRMYIEEQDDQDGSSWKCIVRNRNELAETLALLKAQIDPVLLKNSSQQDNSSRESPSLEDEETKKEEETPKQEEQKESEKMKSEEQPMDLENRSTANVLEETTVKKEKEDEKELVKLPVIVKLEKPLPENEEKKIIKEESDSFKENVKPIKVEVKECRADPKDTKSSMEKPVAQEPERIEFGGNIKSSHEITEKSTEETEKLKNDQQAKIPLKKREIKLSDDFDSPVKGPLCKSVTPTKEFLKDEIKQEEETCKRISTITALGHEGKQLVNGEVSDERVAPNFKTEPIETKFYETKEESYSPSKDRNIITEGNGTESLNSVITSMKTGELEKETAPLRKDADSSISVLEIHSQKAQIEEPDPPEMETSLDSSEMAKDLSSKTALSSTESCTMKGEEKSPKTKKDKRPPILECLEKLEKSKKTFLDKDAQRLSPIPEEVPKSTLESEKPGSPEAAETSPPSNIIDHCEKLASEKEVVECQSTSTVGGQSVKKVDLETLKEDSEFTKVEMDNLDNAQTSGIEEPSETKGSMQKSKFKYKLVPEEETTASENTEITSERQKEGIKLTIRISSRKKKPDSPPKVLEPENKQEKTEKEEEKTNVGRTLRRSPRISRPTAKVAEIRDQKADKKRGEGEDEVEEESTALQKTDKKEILKKSEKDTNSKVSKVKPKGKVRWTGSRTRGRWKYSSNDESEGSGSEKSSAASEEEEEKESEEAILADDDEPCKKCGLPNHPELILLCDSCDSGYHTACLRPPLMIIPDGEWFCPPCQHKLLCEKLEEQLQDLDVALKKKERAERRKERLVYVGISIENIIPPQEPDFSEDQEEKKKDSKKSKANLLERRSTRTRKCISYRFDEFDEAIDEAIEDDIKEADGGGVGRGKDISTITGHRGKDISTILDEERKENKRPQRAAAARRKKRRRLNDLDSDSNLDEEESEDEFKISDGSQDEFVVSDENPDESEEDPPSNDDSDTDFCSRRLRRHPSRPMRQSRRLRRKTPKKKYSDDDEEEESEENSRDSESDFSDDFSDDFVETRRRRSRRNQKRQINYKEDSESDGSQKSLRRGKEIRRVHKRRLSSSESEESYLSKNSEDDELAKESKRSVRKRGRSTDEYSEADEEEEEEEGKPSRKRLHRIETDEEESCDNAHGDANQPARDSQPRVLPSEQESTKKPYRIESDEEEDFENVGKVGSPLDYSLVDLPSTNGQSPGKAIENLIGKPTEKSQTPKDNSTASASLASNGTSGGQEAGAPEEEEDELLRVTDLVDYVCNSEQL"
–,binds,"CTCF insulator protein, P49711 1-727 (protein) MEGDAVEAIVEESETFIKGKERKTYQRRREGGQEEDACHLPQNQTDGGEVVQDVNSSVQMVMMEQLDPTLLQMKTEVMEGTVAPEAEAAVDDTQIITLQVVNMEEQPINIGELQLVQVPVPVTVPVATTSVEELQGAYENEVSKEGLAESEPMICHTLPLPEGFQVVKVGANGEVETLEQGELPPQEDPSWQKDPDYQPPAKKTKKTKKSKLRYTEEGKDVDVSVYDFEEEQQEGLLSEVNAEKVVGNMKPPKPTKIKKKGVKKTFQCELCSYTCPRRSNLDRHMKSHTDERPHKCHLCGRAFRTVTLLRNHLNTHTGTRPHKCPDCDMAFVTSGELVRHRRYKHTHEKPFKCSMCDYASVEVSKLKRHIRSHTGERPFQCSLCSYASRDTYKLKRHMRTHSGEKPYECYICHARFTQSGTMKMHILQKHTENVAKFHCPHCDTVIARKSDLGVHLRKQHSYIEQGKKCRYCDAVFHERYALIQHQKSHKNEKRFKCDQCDYACRQERHMIMHKRTHTGEKPYACSHCDKTFRQKQLLDMHFKRYHDPNFVPAAFVCSKCGKTFTRRNTMARHADNCAGPDGVEGENGGETKKSKRGRKRKMRSKKEDSSDSENAEPDLDDNEDEEEPAVEIEPEPEPQPVTPAPPPAKKRRGRPPGRTNQPKQNQPTAIIQVEDQNTGAIENIIVEVKKEPDAEPAEGEEEEAQPAATDAPNGDLTPEMILSMMDR"
–,binds,"SCC1/RAD21, O60216 1-631 (protein) MFYAHFVLSKRGPLAKIWLAAHWDKKLTKAHVFECNLESSVESIISPKVKMALRTSGHLLLGVVRIYHRKAKYLLADCNEAFIKIKMAFRPGVVDLPEENREAAYNAITLPEEFHDFDQPLPDLDDIDVAQQFSLNQSRVEEITMREEVGNISILQENDFGDFGMDDREIMREGSAFEDDDMLVSTTTSNLLLESEQSTSNLNEKINHLEYEDQYKDDNFGEGNDGGILDDKLISNNDGGIFDDPPALSEAGVMLPEQPAHDDMDEDDNVSMGGPDSPDSVDPVEPMPTMTDQTTLVPNEEEAFALEPIDITVKETKAKRKRKLIVDSVKELDSKTIRAQLSDYSDIVTTLDLAPPTKKLMMWKETGGVEKLFSLPAQPLWNNRLLKLFTRCLTPLVPEDLRKRRKGGEADNLDEFLKEFENPEVPREDQQQQHQQRDVIDEPIIEEPSRLQESVMEASRTNIDESAMPPPPPQGVKRKAGQIDPEPVMPPQQVEQMEIPPVELPPEEPPNICQLIPELELLPEKEKEKEKEKEDDEEEEDEDASGGDQDQEERRWNKRTQQMLHGLQRALAKTGAESISLLELCRNTNRKQAAAKFYSFLVLKKQQAIELTQEEPYSDIIATPGPRFHII"
